PubChem BioAssay AID686937 | Drosophila RNAi Screening Center, 2013

- Aim: 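Genes whose loss weakens secretory pathway function in fly cells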 (primary screen)
- Cells: Drosophila S2 cells expressing secreted horseradish peroxidase
- Knock-down reagent: long dsRNA against Drosophila genes
- Time to read-out: about 5.5 days (5 days dsRNA, then 12 h reporter induction)
- Challenge: reporter expression induced after 5 days of dsRNA, read 12 h later; inducer not stated
- Detection: 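Chemiluminescent measurement of peroxidase in the medium 12 h after reporter induction, following 5 days of dsRNA, given as a z-score per plate; higher means more secretion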
- Scale: z-score: higher = more reporter secreted into medium
The screen tested about 23,000 reagents; below is a random part of those with a known target gene and a result. 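Reduced-secretion tags in replicate 1 do not always agree with the z-scores; no criterion for assigning the tags was given.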 Not all columns of the deposit are shown. The record does not give: the amount of reagent.

z-score, replicate 1, by gene and reagent
CG7006: DRSC16169 0.28
Vha36-3: DRSC18615 0.33
Nckx30C: DRSC02686 0.14; DRSC02687 0.18; DRSC02688 0.67; DRSC02689 0.44
CG43127: DRSC09039 0.27
CG5644: DRSC10531 0.27
CG10874: DRSC00297 0.27
rngo: DRSC19903 0.8
CG30398: DRSC03891 -0.04
CG6583: DRSC02972 -0.04
CG31431: DRSC14589 0.35
Ugt302C1: DRSC15353 0.15
SIDL: DRSC16077 0.31
CG34033: DRSC05190 -0.06
Tango2: DRSC19394 -2.92; DRSC21526 0.29
Mtap: DRSC06890 -0.26
alpha-Man-Ia: DRSC17642 -0.89; DRSC18162 -0.69; DRSC18163 -0.37; DRSC18735 0.31
CG15170: DRSC02471 0.05
Bicra: DRSC14417 0.46
CG2818: DRSC00540 0.35

Targets above whose target name begins with N or n (4):
z-score, replicate 1, by gene and reagent
Nckx30C: DRSC02686 0.14; DRSC02687 0.18; DRSC02688 0.67; DRSC02689 0.44

The list goes on.
z-score, replicate 1, by gene and reagent
CG14963: DRSC08422 0.47
lncRNA:CR31386: DRSC22769 1.66
CG34161: DRSC01132 0.13
LIMK1: DRSC19811 0.3
ValRS: DRSC06864 -0.22
CG14736: DRSC14956 0.31
CG32281: DRSC08236 0.25
Fie: DRSC08158 0.31
CG15202: DRSC19649 0.22
CG17270: DRSC15209 0.36
CG1958: DRSC18196 0.2
RpL40: DRSC00782 -3.95
CG33322: DRSC03204 -0.08
CG12480: DRSC19460 0.03
CG17032: DRSC10241 0.56
Hmbs: DRSC08632 0.27
Grip163: DRSC10538 0.01
CG9986: DRSC16586 0.33
CG12126: DRSC06103 -0.01
comr: DRSC04138 0.13
alpha-Est5: DRSC12617 0.35
Oxp: DRSC06712 -0.23
pst: DRSC11003 -3.05
CG31883: DRSC02561 0.12
Mvb12: DRSC20027 0.42
TrpRS-m: DRSC10848 0.42
Taf2: DRSC11298 -0.01
Noc3: DRSC12535 0.03
saturn: DRSC09303 0.23
Su(var)3-3: DRSC10250 0.13
